According to paper PMC4100928, “Evolutionary Divergence in the Catalytic Activity of the CAM-1, ROR1 and ROR2 Kinase Domains” (PLoS ONE, 2014):
Results are given in words; binding and its absence hold for the method and conditions named.

The chains behind the UniProt entries cited, without tags or fusion partners. Residues count along the entry.
UniProt Q01973, residues 428-937: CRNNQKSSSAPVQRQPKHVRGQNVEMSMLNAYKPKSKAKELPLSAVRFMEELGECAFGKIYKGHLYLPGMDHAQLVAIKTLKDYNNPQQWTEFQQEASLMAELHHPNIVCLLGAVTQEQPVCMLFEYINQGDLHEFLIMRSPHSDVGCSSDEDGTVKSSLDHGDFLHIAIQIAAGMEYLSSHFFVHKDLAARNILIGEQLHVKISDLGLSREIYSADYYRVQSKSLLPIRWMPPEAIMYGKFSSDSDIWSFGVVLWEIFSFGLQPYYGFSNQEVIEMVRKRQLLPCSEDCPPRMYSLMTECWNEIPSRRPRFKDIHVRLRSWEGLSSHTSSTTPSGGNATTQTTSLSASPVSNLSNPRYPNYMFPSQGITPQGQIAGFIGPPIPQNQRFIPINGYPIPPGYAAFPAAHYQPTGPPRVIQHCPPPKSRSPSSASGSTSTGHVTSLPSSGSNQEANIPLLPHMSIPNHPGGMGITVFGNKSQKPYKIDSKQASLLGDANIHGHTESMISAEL

B1: ROR2 intracellular domain (ICD), wild type (domain or fragment, UniProt Q01974 428-943)
chain: CRNKQKASASTPQRRQLMASPSQDMEMPLINQHKQAKLKEISLSAVRFMEELGEDRFGKVYKGHLFGPAPGEQTQAVAIKTLKDKAEGPLREEFRHEAMLRARLQHPNVVCLLGVVTKDQPLSMIFSYCSHGDLHEFLVMRSPHSDVGSTDDDRTVKSALEPPDFVHLVAQIAAGMEYLSSHHVVHKDLATRNVLVYDKLNVKISDLGLFREVYAADYYKLLGNSLLPIRWMAPEAIMYGKFSIDSDIWSYGVVLWEVFSYGLQPYCGYSNQDVVEMIRNRQVLPCPDDCPAWVYALMIECWNEFPSRRPRFKDIHSRLRAWGNLSNYNSSAQTSGASNTTQTSSLSTSPVSNVSNARYVGPKQKAPPFPQPQFIPMKGQIRPMVPPPQLYVPVNGYQPVPAYGAYLPNFYPVQIPMQMAPQQVPPQMVPKPSSHHSGSGSTSTGYVTTAPSNTSMADRAALLSEGADDTQNAPEDGAQSTVQEAEEEEEGSVPETELLGDCDTLQVDEAQVQLEA

How the values were obtained:
[1] = target: ROR1 intracellular domain (ICD), wild type (human) (UniProt Q01973); experiment: SEC-MALS; printed as MALLS; theoretical against experimental molecular weight of the wild type ICDs; conditions not given; both purified
[2] = target: ROR2 intracellular domain (ICD), wild type (human) (UniProt Q01974); experiment: as above

| Molecule | binding [1] | binding [2] |
| --- | --- | --- |
| ROR1 intracellular domain (ICD), wild type (from UniProt Q01973 428-937) (domain or fragment) | no binding | – |
| B1 | – | no binding |
